Some entries share one result that the patent states for a list of compounds.
Assays:
Alternaria brassicae = assay: In vivo test on Alternaria brassicae (leaf spot of crucifers); conditions: radish plants sprayed 24 h before contamination, grading 6 to 7 days after contamination vs control plants
Pyrenophora teres = assay: In vivo test on Pyrenophora teres (barley net blotch); conditions: barley plants sprayed 24 h before contamination, grading 12 days after contamination vs control plants
Botrytis cinerea = assay: In vivo test on Botrytis cinerea (cucumber grey mould); conditions: dose 500 ppm; cucumber plants sprayed 24 h before contamination; grading 5/7 days after contamination vs control plants

O=C(NCCc1nc2ccccc2s1)c1sccc1I [AA 1]
protection (good, at least 50%, or total) (Alternaria brassicae; dose 500 ppm): at least 50%

Cc1nc(C(F)(F)F)c(C(=O)NCC(C)c2nc3ccccc3n2C)s1 (stereo not shown) [AB1]
protection (good, at least 50%, or total) (Pyrenophora teres; dose 500 ppm): at least 50%

Cn1cc(C(=O)NCCc2nc3ccccc3s2)c(C(F)(F)F)n1 [AC1]
protection (good, at least 50%, or total) (Alternaria brassicae; dose 500 ppm): at least 50%

Cc1c(CCNC(=O)c2sccc2I)sc2ccccc12 [Compound A5]
protection (good, at least 50%, or total) (Pyrenophora teres; dose 250 ppm): at least 50%
protection (good, at least 50%, or total) (Alternaria brassicae; dose 250 ppm): at least 50%

Cc1c(CCNC(=O)c2ccoc2I)sc2ccccc12 [Compound B7]
protection (good, at least 50%, or total) (Pyrenophora teres; dose 250 ppm): at least 50%
protection (good, at least 50%, or total) (Alternaria brassicae; dose 250 ppm): at least 50%

Cc1c(CCNC(=O)c2ccsc2I)sc2ccccc12 [Compound G2]
protection (good, at least 50%, or total) (Pyrenophora teres; dose 500 ppm): at least 50%
protection (good, at least 50%, or total) (Botrytis cinerea): at least 50%

Cc1c(CCNC(=O)c2cccnc2Cl)sc2ccccc12 [Compound H1]
protection (good, at least 50%, or total) (Pyrenophora teres; dose 500 ppm): at least 50%
protection (good, at least 50%, or total) (Botrytis cinerea): at least 50%

Cc1[nH]c2ccccc2c1CCNC(=O)c1ccoc1I [Compound P4]
protection (good, at least 50%, or total) (Pyrenophora teres; dose 330 ppm): at least 50%

Cc1cc(C(=O)NCCc2c[nH]c3ccc(Br)cc23)c(C(F)(F)F)o1 [Compound P5]
protection (good, at least 50%, or total) (Pyrenophora teres; dose 500 ppm): at least 50%

O=C(NCCc1c[nH]c2ccc(Br)cc12)c1ccoc1I [Compound P7]
protection (good, at least 50%, or total) (Alternaria brassicae; dose 500 ppm): at least 50%

Cc1nc(C(F)F)c(C(=O)NCCc2c[nH]c3ccc(Br)cc23)s1 [Compound Q5]
protection (good, at least 50%, or total) (Alternaria brassicae; dose 500 ppm): at least 50%

Cn1cc(C(=O)NCCc2c[nH]c3ccc(O)cc23)c(C(F)F)n1 [Compound R1]
protection (good, at least 50%, or total) (Pyrenophora teres; dose 330 ppm): at least 50%

O=C(NCCc1c[nH]c2ccc(O)cc12)C1=C(C(F)(F)F)OCCS1 [Compound S3]
protection (good, at least 50%, or total) (Botrytis cinerea): at least 50%

O=C(NCCc1c[nH]c2ccc(Br)cc12)C1=C(C(F)(F)F)OCCS1 [Compound S6]
protection (good, at least 50%, or total) (Alternaria brassicae; dose 500 ppm): at least 50%

Cc1[nH]c2ccccc2c1CCNC(=O)c1cn(C)cc1C(F)(F)F [Compound U1]
protection (good, at least 50%, or total) (Pyrenophora teres; dose 330 ppm): at least 50%

O=C(NCCc1coc2ccccc12)c1sccc1I [Compound X1]
protection (good, at least 50%, or total) (Pyrenophora teres; dose 500 ppm): at least 50%

Cc1nc(C(F)(F)F)c(C(=O)NCCc2coc3ccccc23)s1 [Compound Y1]
protection (good, at least 50%, or total) (Pyrenophora teres; dose 500 ppm): at least 50%

Cn1cc(C(=O)NCCc2coc3ccccc23)c(C(F)(F)F)n1 [Compound Z1]
protection (good, at least 50%, or total) (Pyrenophora teres; dose 500 ppm): at least 50%

Source: patent publication US20090105308A1, “Benzoheterocylethylcarboxamide derivatives” (priority 2005, published 2009)
